# Laboratory results from article PMC11033246.
# System: T1, TobR (Lrp/AsnC family regulator)
# T1 sequence (looked up): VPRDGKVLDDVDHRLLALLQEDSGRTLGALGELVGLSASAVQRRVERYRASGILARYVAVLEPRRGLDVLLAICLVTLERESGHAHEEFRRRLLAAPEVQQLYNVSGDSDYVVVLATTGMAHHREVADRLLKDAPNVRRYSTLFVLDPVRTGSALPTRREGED
# Assay: EMSA
# Conditions: Tris-HCl pH 7.5 (printed as 10 mL), 5 mM MgCl2, 60 mM KCl, 10 mM DTT, 50 mM EDTA, 10% glycerol; 100 ng DNA in 20 uL, 30 C, 20 min; 6% native PAGE in ice-cold 0.5x TBE; recombinant protein; residues 1-163; protein details: N-terminal His6 (pET28a); probe letters rebuilt from the primers and the genome
sequence,measurement,value
AGGCAGATCGCCAGCAGGACGTCGAGGCCGCGCCGGGGCTCCAGCACGGCCACGTACCGGGCGAGGATCCCGCTGGCGCGGTACCGCTCCACCCGGCGTTGGACCGCGCTCGCCGACAACCCCACCAGCTCGCCGAGGGCGCCGAGCGTGCGCCCGGAGTCCTCCTGCAACAGGGCGAGCAACCGGTGGTCGACGTCGTCGAGGACCTTCCCGTCACGAGGCACGCAACCATGTTGCGCGACGGCGGGCGAATTTTCAATCGCCGCCACCTGGGGAGCGGTTATCGTGTGCGTCGACGGGAGAGAAACCACCGGGTAACGCGGGGACGCGCTTTTTCGATGTCGACGGAACAGGGACCCGCGCCGTCGAAATCGCGACGAAAGCCGACGGGAATCGACCGCCGATACGTTCGCGCCGCACGGTAGGACCGACAGTGGAGGAAATCAGATGTCCTCGGCGCTCACGATTCCCCTGTACCACGTCCCTGAGGACGAGAGAATCCGGTTGTGGGAGCACT (double strand) [PtobO (tobR-tobO intergenic)],binding result,binds

# Protein sequences can lack the tags named with them.
